PubChem BioAssay AID504808 | Drosophila RNAi Screening Center – 2011
The deposit covers about 21,000 reagents; shown is a random part of those that have a named target and a result. In the full data, 18 (0.084%) are marked active. 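Raw counts without plate normalisation, one of two replicates; the ratio scores behind the calls were not deposited.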 Names joined by + are all predicted targets of the reagent. Reagent sequences are not shown. Not given: the amount of reagent, the time to read-out.

Screen: 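Genes whose loss lifts activity of an E2F-responsive reporter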 (primary screen)
Cell system: Drosophila S2 cells
Reagents: long dsRNA against Drosophila genes
Detection: 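Dual luciferase plate measurements; E2F-specific signal taken as firefly over Renilla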
Reading the numbers: E2F firefly: higher = more E2F reporter activity; Renilla normaliser: higher = more normaliser reporter signal
Call rule: 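Called active if the normalised E2F reporter went up by over 50%; the cutoff is arbitrary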

| gene knocked down | DRSC id | E2F firefly, rep 1 | Renilla normaliser, rep 1 | activity call |
| --- | --- | --- | --- | --- |
| Trf4 (TBP-related factor 4) | DRSC00729 | 1.65e5 | 5719 | inactive |
| CG31106 | DRSC14655 | 1.20e5 | 6763 | inactive |
| niki (nimA-like kinase) | DRSC14285 | 1.07e5 | 6206 | inactive |
| CG7332 | DRSC20038 | 1.68e5 | 5459 | inactive |
| gammaTub37C (gamma-Tubulin at 37C) | DRSC03535 | 80093 | 3971 | inactive |
| ldbr (lariat debranching enzyme) | DRSC10933 | 71721 | 4104 | inactive |
| Lcp9 (Larval cuticle protein 9) | DRSC04287 | 99808 | 3925 | inactive |
| Mco1 (Multicopper oxidase 1) | DRSC02720 | 1.40e5 | 5159 | inactive |
| CG14478 | DRSC06450 | 1.28e5 | 4927 | inactive |
| Adh + Adhr | DRSC01862 | 84565 | 4086 | inactive |
| Adh + Adhr | DRSC01863 | 1.02e5 | 3851 | inactive |
| Tango9 (Transport and Golgi organization 9) | DRSC14173 | 65834 | 3207 | inactive |
| plh (pasang lhamu) | DRSC12294 | 1.22e5 | 5491 | inactive |
| CG12861 | DRSC06201 | 1.03e5 | 5923 | inactive |
| CG11630 | DRSC03696 | 98413 | 3834 | inactive |
| CG13055 | DRSC09936 | 1.48e5 | 8223 | inactive |
| Rbpn-5 (Rabaptin-5) | DRSC04440 | 83960 | 2971 | inactive |
| CG32536 + CG32537 | DRSC20074 | 1.29e5 | 5144 | inactive |
| stwl (stonewall) | DRSC11400 | 65578 | 3225 | inactive |
| Mob3 (MOB kinase activator 3) | DRSC02791 | 1.64e5 | 5246 | inactive |
| CG17163 | DRSC20901 | 1.43e5 | 6180 | inactive |
| CG17684 | DRSC07724 | 1.66e5 | 5797 | inactive |
| CG17684 | DRSC21166 | 1.38e5 | 6309 | inactive |
| CG5225 | DRSC15742 | 1.11e5 | 6684 | inactive |
| Gr58c (Gustatory receptor 58c) | DRSC04136 | 1.04e5 | 3907 | inactive |
| CG33136 | DRSC05744 | 1.50e5 | 4995 | inactive |
| CRMP (Collapsin Response Mediator Protein) | DRSC12073 | 65781 | 4205 | inactive |
| CRMP (Collapsin Response Mediator Protein) | DRSC12345 | 67967 | 3578 | inactive |
| CG30031 + deltaTry + CG30025 + 1 more | DRSC21262 | 1.37e5 | 6171 | inactive |
| CG3213 | DRSC00576 | 1.47e5 | 5511 | inactive |
| dac (dachshund) | DRSC03518 | 95089 | 4259 | inactive |
| Fdx1 (Ferredoxin 1) | DRSC11167 | 55176 | 709 | inactive |
| CG6686 | DRSC02979 | 67207 | 204 | inactive |
| Cont (Contactin) | DRSC12149 | 79441 | 3405 | inactive |
| CG14331 | DRSC14810 | 1.12e5 | 6049 | inactive |
| CG17024 (retired record) | DRSC02562 | 95554 | 3865 | inactive |
| mon2 (monensin sensitivity 2) | DRSC03112 | 1.36e5 | 5316 | inactive |
| CG12945 | DRSC14573 | 1.24e5 | 6761 | inactive |
| RhoGAP68F (Rho GTPase activating protein at 68F) | DRSC10717 | 70435 | 3283 | inactive |
| Hcf (Host cell factor) | DRSC17143 | 1813 | 1040 | inactive |
| Myt1 | DRSC11228 | 83972 | 3406 | inactive |
| CG10814 | DRSC06004 | 2725 | 205 | inactive |
| CG14441 | DRSC17934 | 76946 | 4371 | inactive |
| CG13443 | DRSC06403 | 1.02e5 | 4806 | inactive |
| Mtr4 (Mtr4 helicase) | DRSC03560 | 65351 | 3159 | inactive |
| CG7099 | DRSC03006 | 81433 | 3367 | inactive |
| l(2)03659 (lethal (2) 03659) | DRSC07269 | 1.35e5 | 5330 | inactive |
| l(2)03659 (lethal (2) 03659) | DRSC07638 | 1.48e5 | 5171 | inactive |
| Tango11 (Transport and Golgi organization 11) | DRSC03890 | 1.30e5 | 5064 | inactive |
| Tango11 (Transport and Golgi organization 11) | DRSC03892 | 1.39e5 | 4947 | inactive |
| CG9641 | DRSC00721 | 85301 | 3630 | inactive |
| CG6683 | DRSC10694 | 76321 | 3090 | inactive |
| Ctr9 | DRSC08562 | 64824 | 3921 | inactive |
| CG16739 | DRSC06621 | 1.16e5 | 3629 | inactive |
| wb (wing blister) | DRSC01375 | 81860 | 2567 | inactive |
| wb (wing blister) | DRSC03634 | 1.04e5 | 4414 | inactive |
| CG32694 | DRSC17844 | 1.08e5 | 5544 | inactive |
| CG32694 | DRSC17855 | 1.05e5 | 5319 | inactive |
| dia (diaphanous) | DRSC03519 | 91813 | 4416 | inactive |
| CG4702 | DRSC15626 | 69783 | 3558 | inactive |
| su(Hw) (suppressor of Hairy wing) | DRSC17074 | 69601 | 3510 | inactive |
| CG2260 | DRSC18223 | 7070 | 896 | inactive |
| Cpr64Ab (Cuticular protein 64Ab) | DRSC08461 | 1.11e5 | 4223 | inactive |
| Gr36c (Gustatory receptor 36c) | DRSC02437 | 1.11e5 | 4333 | inactive |
| MED19 (Mediator complex subunit 19) | DRSC10516 | 46797 | 210 | inactive |
| CG33325 | DRSC12699 | 78941 | 3740 | inactive |
| Gfat1 (Glutamine:fructose-6-phosphate aminotransferase 1) | DRSC21219 | 1.18e5 | 6629 | inactive |
| CDK2AP1 (CDK2-associated protein 1) | DRSC19800 | 7323 | 772 | inactive |
| RpL35 (Ribosomal protein L35) | DRSC18347 | 54200 | 5015 | inactive |
| cv-d (crossveinless d) | DRSC16522 | 70325 | 3498 | inactive |
| cv-d (crossveinless d) | DRSC16524 | 1.07e5 | 5391 | inactive |
| cv-d (crossveinless d) | DRSC16526 | 1.18e5 | 6721 | inactive |
| Gbp2 (Growth-blocking peptide 2) | DRSC06069 | 79777 | 3302 | inactive |
| MICU1 (Mitochondrial calcium uptake 1) | DRSC02752 | 87042 | 3897 | inactive |
| Jon65Aiii (Jonah 65Aiii) | DRSC10649 | 81729 | 3564 | inactive |
| LanB1 | DRSC03360 | 93532 | 4176 | inactive |
| CG3788 | DRSC04418 | 1.05e5 | 4870 | inactive |
| ric8b + ric8a | DRSC18104 | 1.18e5 | 5710 | inactive |
| CG15772 | DRSC18078 | 61007 | 4445 | inactive |
| Sb (Stubble) | DRSC16851 | 1.18e5 | 7016 | inactive |
| c11.1 | DRSC18749 | 1.32e5 | 6067 | inactive |
| CG4278 | DRSC02741 | 74153 | 3289 | inactive |
| Slip1 (SLo interacting protein 1) | DRSC17146 | 1851 | 960 | inactive |
| p53 | DRSC17024 | 73140 | 3359 | inactive |

7 entries from above, limited to “E2F firefly, rep 1”:
Gfat1 (Glutamine:fructose-6-phosphate aminotransferase 1) [DRSC21219]	1.18e5
CDK2AP1 (CDK2-associated protein 1) [DRSC19800]	7323
RpL35 (Ribosomal protein L35) [DRSC18347]	54200
cv-d (crossveinless d) [DRSC16522]	70325
cv-d (crossveinless d) [DRSC16524]	1.07e5
cv-d (crossveinless d) [DRSC16526]	1.18e5
Gbp2 (Growth-blocking peptide 2) [DRSC06069]	79777
